Construct, isoform or probe ends are uncertain for at least one entry.

The series has as its system OsWOX13 (Oryza sativa). The experiment in a line: EMSA. The conditions noted are these: EMSA: 5 ug protein, 40 fmol FAM-dsDNA, 1 ug poly(dI-dC), 1X binding buffer (Pierce), 2.5% glycerol, 0.05% NP-40, 20 ul, 1 h room temperature; 6% acrylamide gel, 0.5X TBE; recombinant protein; label: 5' FAM. Background: A gel shift assay detects complexes by their altered migration in electrophoresis.

Take “AATATAACGAAACATGCAATCAATCAAAATGTTGGGAAGG (double strand) [Os08g0536300_14 (Hd1-3 promoter probe)]”: the binding result is listed as “binds”.

The values are drawn from paper PMC7819943, “Rice protein-binding microarrays: a tool to detect cis-acting elements near promoter regions in rice”.
